The text below walks through data of patent publication US20180169177A1, “POLYPEPTIDE SPECIFICALLY BINDING TO CD34 MOLECULE AND USE THEREOF” (Guangzhou Yidai Pharmaceutical Co., Ltd., priority 2015, published 2018).

The chains behind the UniProt entries cited, without tags or fusion partners. Residues count along the entry.
UniProt P28906, residues 32-290: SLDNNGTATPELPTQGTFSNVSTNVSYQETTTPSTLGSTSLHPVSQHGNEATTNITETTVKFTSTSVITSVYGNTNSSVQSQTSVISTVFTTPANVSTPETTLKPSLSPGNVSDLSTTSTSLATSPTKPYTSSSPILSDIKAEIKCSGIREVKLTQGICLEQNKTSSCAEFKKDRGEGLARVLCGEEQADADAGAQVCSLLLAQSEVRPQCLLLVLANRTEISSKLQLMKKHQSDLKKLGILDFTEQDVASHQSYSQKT

These are yes or no findings as the source states them, for the method shown. Some results given as binding are weak or reduced against the parent protein; the word gives no strength.

This assay deals with CD34 molecules (purchased from PeproTech) (UniProt P28906). The experiment in a line: phage binding to CD34-coated 96-hole plate, read by spectrophotometer.

Take SSLGWWGPRRDFPGRRERIYLGIPWLSLLGSGAPSPV [monoclonal phage 19]: the binding result is given as “binds”.
Under SSFASKKGYPFNRMCAS [monoclonal phage 17] stands “binds”.
